Measured values as given in publication PMC4140284, “Human UTY(KDM6C) Is a Male-specific N^ϵ-Methyl Lysyl Demethylase” (The Journal of Biological Chemistry, 2014).

System: UTY(KDM6C)
Test: Crystal structure of UTY(KDM6C) complexes
Type: binding, human
Conditions: PDB 3ZPO

O=C(O)CCNc1cc(N2CCc3ccccc3CC2)nc(-c2ccccn2)n1 [GSK-J1]
binding mode in crystal structure (2.0 Å, compared with KDM6B·GSK-J1 complex): bound to the 2OG binding site identically within error to that observed with KDM6B·GSK-J1 complex | translocation of active site iron (away from the HXE … H triad): ~2.4 Å
